For eleven targets, log2 fold change results are on record in the supplement of paper PMC12819154, “High-throughput peptide-centric local stability assay extends protein–ligand identification to membrane proteins, tissues and bacteria” (Nature Structural & Molecular Biology, 2025).

Sequences of proteins named here, by UniProt entry; tags and fusion partners are left off. A change or cut given only in a name is not applied to a line headed by its entry.
UniProt Q13191, whole entry: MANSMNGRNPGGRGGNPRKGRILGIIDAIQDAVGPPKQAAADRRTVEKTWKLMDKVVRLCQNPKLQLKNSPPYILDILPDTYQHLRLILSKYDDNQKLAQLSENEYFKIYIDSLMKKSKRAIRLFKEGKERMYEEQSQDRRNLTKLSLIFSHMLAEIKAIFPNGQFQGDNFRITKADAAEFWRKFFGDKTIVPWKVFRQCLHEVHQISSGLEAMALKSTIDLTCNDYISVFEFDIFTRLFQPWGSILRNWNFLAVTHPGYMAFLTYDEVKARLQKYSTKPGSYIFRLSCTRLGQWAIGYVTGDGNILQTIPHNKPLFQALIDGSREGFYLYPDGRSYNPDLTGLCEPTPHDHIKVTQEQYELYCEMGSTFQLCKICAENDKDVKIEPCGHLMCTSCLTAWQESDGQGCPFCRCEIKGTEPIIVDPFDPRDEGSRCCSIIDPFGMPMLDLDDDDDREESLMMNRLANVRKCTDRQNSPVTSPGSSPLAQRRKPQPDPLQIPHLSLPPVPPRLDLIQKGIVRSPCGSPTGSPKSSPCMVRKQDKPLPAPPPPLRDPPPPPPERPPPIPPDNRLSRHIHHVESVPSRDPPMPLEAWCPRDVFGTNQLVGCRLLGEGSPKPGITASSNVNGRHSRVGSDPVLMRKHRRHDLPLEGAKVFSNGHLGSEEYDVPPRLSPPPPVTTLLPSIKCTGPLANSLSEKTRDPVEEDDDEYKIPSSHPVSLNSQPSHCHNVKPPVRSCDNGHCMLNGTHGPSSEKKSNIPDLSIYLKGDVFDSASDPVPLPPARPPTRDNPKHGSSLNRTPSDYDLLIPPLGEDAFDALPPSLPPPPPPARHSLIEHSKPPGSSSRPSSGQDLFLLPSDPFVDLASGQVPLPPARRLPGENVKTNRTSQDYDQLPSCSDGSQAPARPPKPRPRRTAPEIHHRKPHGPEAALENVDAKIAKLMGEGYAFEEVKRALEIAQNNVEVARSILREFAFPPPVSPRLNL
UniProt Q13158: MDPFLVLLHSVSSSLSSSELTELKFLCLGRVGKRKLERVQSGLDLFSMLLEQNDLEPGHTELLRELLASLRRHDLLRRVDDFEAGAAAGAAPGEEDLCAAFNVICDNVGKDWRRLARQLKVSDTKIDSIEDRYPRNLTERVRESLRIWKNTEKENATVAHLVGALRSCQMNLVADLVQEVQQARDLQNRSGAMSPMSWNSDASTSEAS
UniProt Q15007: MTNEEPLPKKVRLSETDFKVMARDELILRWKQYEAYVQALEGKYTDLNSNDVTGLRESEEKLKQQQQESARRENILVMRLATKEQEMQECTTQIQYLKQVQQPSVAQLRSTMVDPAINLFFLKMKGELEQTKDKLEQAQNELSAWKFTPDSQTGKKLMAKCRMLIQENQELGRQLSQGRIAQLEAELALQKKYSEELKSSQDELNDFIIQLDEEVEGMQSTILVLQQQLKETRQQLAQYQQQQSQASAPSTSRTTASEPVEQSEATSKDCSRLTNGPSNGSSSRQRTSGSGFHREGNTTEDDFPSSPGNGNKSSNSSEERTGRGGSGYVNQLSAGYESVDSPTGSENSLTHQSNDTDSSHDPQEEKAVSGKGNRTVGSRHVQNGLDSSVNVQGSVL
UniProt Q13630: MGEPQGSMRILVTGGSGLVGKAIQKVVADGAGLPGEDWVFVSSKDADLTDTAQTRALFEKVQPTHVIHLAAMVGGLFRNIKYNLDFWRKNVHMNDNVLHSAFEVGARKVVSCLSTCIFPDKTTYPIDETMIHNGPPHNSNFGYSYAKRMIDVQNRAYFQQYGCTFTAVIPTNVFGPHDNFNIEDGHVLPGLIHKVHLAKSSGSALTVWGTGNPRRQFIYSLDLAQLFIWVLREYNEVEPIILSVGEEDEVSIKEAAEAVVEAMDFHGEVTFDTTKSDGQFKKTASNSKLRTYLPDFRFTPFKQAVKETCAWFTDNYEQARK
UniProt Q14687: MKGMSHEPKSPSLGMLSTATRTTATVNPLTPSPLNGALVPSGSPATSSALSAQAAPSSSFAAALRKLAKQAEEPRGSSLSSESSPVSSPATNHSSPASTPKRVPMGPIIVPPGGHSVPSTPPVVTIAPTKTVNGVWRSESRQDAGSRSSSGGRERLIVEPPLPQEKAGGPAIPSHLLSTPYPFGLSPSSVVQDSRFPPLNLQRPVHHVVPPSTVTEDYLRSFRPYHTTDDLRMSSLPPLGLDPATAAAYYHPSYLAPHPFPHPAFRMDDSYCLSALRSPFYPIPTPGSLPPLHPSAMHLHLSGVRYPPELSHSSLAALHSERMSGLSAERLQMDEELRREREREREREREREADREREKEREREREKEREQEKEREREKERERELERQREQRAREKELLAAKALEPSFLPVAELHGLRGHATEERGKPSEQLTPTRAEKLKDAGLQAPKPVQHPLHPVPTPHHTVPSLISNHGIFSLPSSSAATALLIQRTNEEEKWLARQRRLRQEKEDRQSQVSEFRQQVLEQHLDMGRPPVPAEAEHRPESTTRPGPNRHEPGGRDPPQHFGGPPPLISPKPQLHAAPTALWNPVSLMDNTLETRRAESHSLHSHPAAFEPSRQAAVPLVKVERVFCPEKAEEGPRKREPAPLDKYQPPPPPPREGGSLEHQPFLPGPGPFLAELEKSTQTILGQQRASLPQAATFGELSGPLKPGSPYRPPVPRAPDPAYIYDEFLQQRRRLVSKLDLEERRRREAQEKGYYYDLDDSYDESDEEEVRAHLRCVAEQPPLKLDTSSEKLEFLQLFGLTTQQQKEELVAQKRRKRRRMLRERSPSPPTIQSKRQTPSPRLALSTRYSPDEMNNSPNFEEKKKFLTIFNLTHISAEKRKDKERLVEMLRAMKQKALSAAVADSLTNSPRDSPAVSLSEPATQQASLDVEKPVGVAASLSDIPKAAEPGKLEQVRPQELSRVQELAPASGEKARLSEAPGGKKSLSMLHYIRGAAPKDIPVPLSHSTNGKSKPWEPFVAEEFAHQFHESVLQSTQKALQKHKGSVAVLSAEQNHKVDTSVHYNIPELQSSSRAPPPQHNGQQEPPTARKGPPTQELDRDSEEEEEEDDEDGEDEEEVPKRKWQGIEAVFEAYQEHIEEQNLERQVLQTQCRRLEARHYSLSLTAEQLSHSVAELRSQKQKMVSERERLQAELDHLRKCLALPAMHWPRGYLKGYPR
UniProt Q15022: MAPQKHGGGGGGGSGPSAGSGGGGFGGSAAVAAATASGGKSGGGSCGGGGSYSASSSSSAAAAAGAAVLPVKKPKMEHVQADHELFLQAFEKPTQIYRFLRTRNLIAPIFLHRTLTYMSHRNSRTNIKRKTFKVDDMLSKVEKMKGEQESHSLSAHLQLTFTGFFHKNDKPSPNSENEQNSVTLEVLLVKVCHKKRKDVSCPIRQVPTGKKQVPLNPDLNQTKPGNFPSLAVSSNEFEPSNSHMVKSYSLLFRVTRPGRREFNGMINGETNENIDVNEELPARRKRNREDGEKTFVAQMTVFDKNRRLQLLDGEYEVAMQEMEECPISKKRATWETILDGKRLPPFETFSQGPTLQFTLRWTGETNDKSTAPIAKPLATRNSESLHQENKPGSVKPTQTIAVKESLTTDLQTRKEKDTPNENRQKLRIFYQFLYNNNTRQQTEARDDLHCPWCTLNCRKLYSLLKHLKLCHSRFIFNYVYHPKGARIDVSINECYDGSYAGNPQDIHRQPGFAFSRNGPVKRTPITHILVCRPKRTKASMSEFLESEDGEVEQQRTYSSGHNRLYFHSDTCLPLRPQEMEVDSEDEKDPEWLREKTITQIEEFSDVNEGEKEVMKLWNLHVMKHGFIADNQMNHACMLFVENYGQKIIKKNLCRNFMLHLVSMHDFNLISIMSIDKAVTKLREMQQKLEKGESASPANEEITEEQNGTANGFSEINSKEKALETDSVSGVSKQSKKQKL
UniProt Q14690: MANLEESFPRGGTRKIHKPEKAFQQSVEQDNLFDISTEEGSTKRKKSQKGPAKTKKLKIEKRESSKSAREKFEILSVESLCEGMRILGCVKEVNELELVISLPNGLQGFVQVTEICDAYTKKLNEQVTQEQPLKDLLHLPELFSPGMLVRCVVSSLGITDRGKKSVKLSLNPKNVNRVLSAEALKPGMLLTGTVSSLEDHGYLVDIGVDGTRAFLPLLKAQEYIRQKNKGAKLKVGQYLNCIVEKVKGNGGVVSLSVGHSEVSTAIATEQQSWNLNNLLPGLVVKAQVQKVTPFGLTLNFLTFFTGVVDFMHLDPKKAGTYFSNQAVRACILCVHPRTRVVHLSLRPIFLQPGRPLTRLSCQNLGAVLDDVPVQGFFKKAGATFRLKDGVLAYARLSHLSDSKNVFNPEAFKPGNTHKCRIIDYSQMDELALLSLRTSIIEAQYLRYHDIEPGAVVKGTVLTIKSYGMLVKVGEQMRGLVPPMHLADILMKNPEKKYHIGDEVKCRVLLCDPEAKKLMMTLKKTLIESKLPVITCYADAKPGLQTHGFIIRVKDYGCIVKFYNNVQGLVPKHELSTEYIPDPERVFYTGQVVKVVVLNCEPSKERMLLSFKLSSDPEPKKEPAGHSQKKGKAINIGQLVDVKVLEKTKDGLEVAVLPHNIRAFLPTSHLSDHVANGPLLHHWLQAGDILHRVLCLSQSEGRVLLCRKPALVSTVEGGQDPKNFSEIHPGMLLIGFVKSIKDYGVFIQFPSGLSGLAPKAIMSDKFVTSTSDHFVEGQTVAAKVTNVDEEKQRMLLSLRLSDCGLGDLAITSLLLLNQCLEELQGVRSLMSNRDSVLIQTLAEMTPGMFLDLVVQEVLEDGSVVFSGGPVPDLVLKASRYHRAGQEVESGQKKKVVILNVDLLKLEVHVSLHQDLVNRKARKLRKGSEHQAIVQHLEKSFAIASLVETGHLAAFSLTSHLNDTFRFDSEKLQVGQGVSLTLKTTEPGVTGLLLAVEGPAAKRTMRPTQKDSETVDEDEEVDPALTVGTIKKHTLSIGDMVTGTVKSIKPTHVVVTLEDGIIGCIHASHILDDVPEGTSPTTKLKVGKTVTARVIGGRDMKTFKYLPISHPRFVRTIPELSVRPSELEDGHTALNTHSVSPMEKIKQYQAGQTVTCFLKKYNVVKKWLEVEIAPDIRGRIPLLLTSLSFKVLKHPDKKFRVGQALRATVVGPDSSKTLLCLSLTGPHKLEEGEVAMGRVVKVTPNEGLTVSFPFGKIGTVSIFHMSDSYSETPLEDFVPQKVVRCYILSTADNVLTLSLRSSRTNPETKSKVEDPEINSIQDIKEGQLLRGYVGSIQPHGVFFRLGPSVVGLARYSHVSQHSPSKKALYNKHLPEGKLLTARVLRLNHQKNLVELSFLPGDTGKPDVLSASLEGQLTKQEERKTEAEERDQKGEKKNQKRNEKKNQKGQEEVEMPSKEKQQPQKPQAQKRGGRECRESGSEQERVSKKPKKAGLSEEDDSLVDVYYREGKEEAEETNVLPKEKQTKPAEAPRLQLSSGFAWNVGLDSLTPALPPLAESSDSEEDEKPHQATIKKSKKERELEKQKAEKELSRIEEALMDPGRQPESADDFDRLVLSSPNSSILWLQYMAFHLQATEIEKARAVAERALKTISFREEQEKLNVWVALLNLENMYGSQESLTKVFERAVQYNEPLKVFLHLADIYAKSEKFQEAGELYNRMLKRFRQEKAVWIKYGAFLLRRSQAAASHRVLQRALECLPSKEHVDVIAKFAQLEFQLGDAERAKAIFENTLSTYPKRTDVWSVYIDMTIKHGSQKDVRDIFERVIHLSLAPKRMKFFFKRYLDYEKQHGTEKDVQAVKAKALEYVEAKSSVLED
UniProt Q14258, whole entry: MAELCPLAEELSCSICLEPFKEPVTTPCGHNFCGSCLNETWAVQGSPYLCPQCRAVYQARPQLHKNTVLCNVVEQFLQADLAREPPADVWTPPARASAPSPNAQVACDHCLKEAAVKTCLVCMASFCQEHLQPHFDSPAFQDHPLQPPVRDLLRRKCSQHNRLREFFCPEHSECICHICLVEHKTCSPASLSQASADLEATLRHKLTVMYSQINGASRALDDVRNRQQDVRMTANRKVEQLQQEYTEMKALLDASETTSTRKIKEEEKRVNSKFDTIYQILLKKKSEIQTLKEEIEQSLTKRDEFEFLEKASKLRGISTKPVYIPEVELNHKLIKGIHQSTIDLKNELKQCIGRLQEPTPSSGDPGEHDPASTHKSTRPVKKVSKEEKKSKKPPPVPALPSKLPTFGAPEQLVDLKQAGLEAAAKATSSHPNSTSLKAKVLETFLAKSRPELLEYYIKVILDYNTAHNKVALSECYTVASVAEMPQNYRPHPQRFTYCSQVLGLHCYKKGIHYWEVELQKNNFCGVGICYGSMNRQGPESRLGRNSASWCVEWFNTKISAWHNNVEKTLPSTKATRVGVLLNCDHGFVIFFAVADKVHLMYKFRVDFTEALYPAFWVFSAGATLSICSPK

Compound in the assay: CN[C@@H]1C[C@H]2O[C@@](C)([C@@H]1OC)n1c3ccccc3c3c4c(c5c6ccccc6n2c5c31)C(=O)NC4 [staurosporine]
Put plainly: log2 fold change of tryptic peptide abundance, ligand vs vehicle (limited proteolysis) (log2 ratio); higher = more trypsin-susceptible (destabilized). The settings on record: ligand concentration: 20 uM; sample: K562 cleared lysate; digestion: 4 min, 22 C (HT-PELSA RT4min, Orbitrap Astral).

This is one part of the list. Most values lie at the level of the controls, where differences are scatter.

On to “CBLB (peptide sequence: RLPGENVK, peptide start residue: 874) (UniProt Q13191)”, for which the log2 fold change was 0.562.
Next, “FADD (peptide sequence: IDSIEDRYPR, peptide start residue: 126) (UniProt Q13158)”: 0.291; “WTAP (peptide sequence: DKLEQAQNELSAWK, peptide start residue: 133) (UniProt Q15007)”: 0.582; “TSTA3 (peptide sequence: ILVTGGSGLVGK, peptide start residue: 10) (UniProt Q13630)”: -0.151.
Regarding “GSE1 (peptide sequence: MDDSYCLSALR, peptide start residue: 267) (UniProt Q14687)”, the log2 fold change was -0.172.
Consider “SUZ12 (peptide sequence: TLTYMSHR, peptide start residue: 114) (UniProt Q15022)”, for which the log2 fold change came to 0.225.
Next, “PDCD11 (peptide sequence: KGSEHQAIVQHLEK, peptide start residue: 924) (UniProt Q14690)”: -1.24; “UniProt Q14050 (peptide sequence: GPTGELGDPGPR, peptide start residue: 584)”: -0.279.
Next, “TRIM25 (peptide sequence: VLETFLAK, peptide start residue: 440) (UniProt Q14258)”: 0.295.
The value for “NUMA1 (peptide sequence: AEVSKLEQQCQK, peptide start residue: 1127) (UniProt Q14980)” was -0.176; that for “ALKBH1 (peptide sequence: LYSQKPNVCNLDK, peptide start residue: 121) (UniProt Q13686)” was -0.167.
